{
  "source": "patent US20150368195A1",
  "about": "“INDOLINE COMPOUNDS FOR TREATMENT AND/OR PREVENTION OF INFLAMMATION DISEASES” (Taipei Medical University, priority 2014, published 2015)",
  "key": {"prostaglandin E2 (PGE2)": {"tested_on": "prostaglandin E2 (PGE2)", "assay": "LPS-induced PGE2 production in RAW 264.7 macrophages", "format": "cell-based", "conditions": "Mus musculus, RAW264.7; LPS-stimulated RAW 264.7 macrophages; mean ± SEM, three experiments", "experimental": "The concentrations of PGE2 in the supernatants of RAW 264.7 cell cultures were determined using an EIA kit (R&D Systems, Minneapolis, Minn., USA).\n(§1) Furthermore, the anti-inflammatory effects of MPT0G009 was evaluated. […] These supernatants were then assayed for PGE2, NO, and IL-6."}, "[1]": {"tested_on": "tumor necrosis factor-α (TNF-α)", "assay": "LPS-induced TNF-α production in RAW 264.7 macrophages", "conditions": "Mus musculus, RAW264.7, read-out: IC50 TNF-α"}, "nitric oxide (NO)": {"tested_on": "nitric oxide (NO)", "assay": "LPS-induced nitric oxide production in RAW 264.7 macrophages", "format": "cell-based", "conditions": "Mus musculus, RAW264.7; LPS-stimulated RAW 264.7 macrophages; mean ± SEM, three experiments", "experimental": "Nitrite concentration was determined using a dilution of sodium nitrite as a standard.\nas §1"}},
  "data": [
    {"smiles": "O=C(CCCCCCC(=O)Nc1ccccc1)NO", "note": "[SAHA, Suberanilohydroxamic Acid, reference compound]", "values": [
      {"measurement": "IC50", "setting": "prostaglandin E2 (PGE2)", "value": "3.22 ± 0.51", "unit": "µM"},
      {"measurement": "IC50", "setting": "[1]", "value": "1.19 ± 0.05", "unit": "µM"},
      {"measurement": "IC50", "setting": "nitric oxide (NO)", "value": "> 10", "unit": "µM"}
    ]}
  ]
}
